In the series the test system is carbapenem-resistant K. pneumoniae. Put plainly: Clinical PK/PD index (AUC/MIC) in BSI patients. Type of series: in vivo, human. The settings on record: eight evaluated patients, lowest value of cohort.

The structures appear in SMILES notation. Bridge positions count the residues as written; N and C are the ends. Square brackets hold non-standard residues; d marks the D form. Peptide text beside a SMILES is read from it. * marks the point of attachment. X1 = CC[C@H](C)CCCCC(=O)*; Dab = NCC[C@H](N)C(=O)O

Consider `CC[C@H](C)CCCCC(=O)N[C@@H](CCN)C(=O)N[C@H](C(=O)N[C@@H](CCN)C(=O)N[C@H]1CCNC(=O)[C@H]([C@@H](C)O)NC(=O)[C@H](CCN)NC(=O)[C@H](CCN)NC(=O)[C@H](CC(C)C)NC(=O)[C@@H](Cc2ccccc2)NC(=O)[C@H](CCN)NC1=O)[C@@H](C)O` [polymyxin B] (X1-[Dab]T[Dab][Dab][Dab][dF]L[Dab][Dab]T; lactam 4-C), for which, where the note is “CRKP MIC ≤1 mg/L, 1.25 mg/kg 12-hourly”, the “AUCss,24h/MIC achieved” value is listed as ≥ 54.4. The “fAUCss,24h/MIC achieved” value (unbound fraction 0.42) is reported as ≥ 22.8.

The values are drawn from publication PMC9800617, “Pharmacokinetics/pharmacodynamics of polymyxin B in patients with bloodstream infection caused by carbapenem-resistant Klebsiella pneumoniae” (Frontiers in Pharmacology, 2022).
